PubChem BioAssay AID1508597 – Cure First | 2020
This is an unselected part of about 2,100 reagents. 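Calls flag viability under 80% in either arm, not effects specific to rucaparib; the reference for percent is not stated.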 Not given: the 100% reference.

Aim: 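Survival screen with siRNA in ovarian cancer cells derived from patients, with or without rucaparib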 (primary screen)
Cells: human ovarian carcinoma lines grown from tumours: OCI-P5x (papillary serous) and OCI-C5x (clear cell)
Reagent: siRNA pool against human genes, 1.25 pmol siRNA per well
Duration: 72 h or 96 h, depending on the cell culture
Treatment: rucaparib 20 µM (about IC30) or vehicle, present until read-out
Detection: 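Luminescent ATP-based viability assay read 72 or 96 h after transfection, depending on culture, given as normalised percent viability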
Reading the numbers: viability, normalised: higher = more viable cells remaining
Active means: 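a well counts as a hit if its normalised viability is under 80 percent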
Calls: active = viability under 80%; inactive = viability 80% or more

For CDIPT (CDP-diacylglycerol--inositol 3-phosphatidyltransferase), rucaparib or vehicle Rucaparib, cell line OCI-C5x (clear cell), technical replicate 1, the values are viability, normalised (%) = 53.5; active.
CDIPT (CDP-diacylglycerol--inositol 3-phosphatidyltransferase), rucaparib or vehicle Rucaparib, cell line OCI-C5x (clear cell), technical replicate 2 scored viability, normalised (%) = 54.2; active.
CDIPT (CDP-diacylglycerol--inositol 3-phosphatidyltransferase), rucaparib or vehicle Rucaparib, cell line OCI-C5x (clear cell), technical replicate 3 scored viability, normalised (%) = 47.7; active.
CDIPT (CDP-diacylglycerol--inositol 3-phosphatidyltransferase), rucaparib or vehicle Rucaparib, cell line OCI-P5x (serous), technical replicate 1 showed viability, normalised (%) = 77.6; active.
CDIPT (CDP-diacylglycerol--inositol 3-phosphatidyltransferase), rucaparib or vehicle Rucaparib, cell line OCI-P5x (serous), technical replicate 2 scored viability, normalised (%) = 67.8; active.
CDIPT (CDP-diacylglycerol--inositol 3-phosphatidyltransferase), rucaparib or vehicle Rucaparib, cell line OCI-P5x (serous), technical replicate 3 scored viability, normalised (%) = 64.1; active.
For CDIPT (CDP-diacylglycerol--inositol 3-phosphatidyltransferase), rucaparib or vehicle Vehicle, cell line OCI-C5x (clear cell), technical replicate 1 the deposit lists viability, normalised (%) = 39.7; active.
With CDIPT (CDP-diacylglycerol--inositol 3-phosphatidyltransferase), rucaparib or vehicle Vehicle, cell line OCI-C5x (clear cell), technical replicate 2, the values are viability, normalised (%) = 43.8; active.
CDIPT (CDP-diacylglycerol--inositol 3-phosphatidyltransferase), rucaparib or vehicle Vehicle, cell line OCI-C5x (clear cell), technical replicate 3 showed viability, normalised (%) = 40.8; active.
CDIPT (CDP-diacylglycerol--inositol 3-phosphatidyltransferase), rucaparib or vehicle Vehicle, cell line OCI-P5x (serous), technical replicate 1 gave viability, normalised (%) = 83.6; inactive.
CDIPT (CDP-diacylglycerol--inositol 3-phosphatidyltransferase), rucaparib or vehicle Vehicle, cell line OCI-P5x (serous), technical replicate 2 showed viability, normalised (%) = 90; inactive.
With CDIPT (CDP-diacylglycerol--inositol 3-phosphatidyltransferase), rucaparib or vehicle Vehicle, cell line OCI-P5x (serous), technical replicate 3, the entry reads viability, normalised (%) = 78.5; active.

Quoted from the entries so far, 3 entries:
CDIPT (CDP-diacylglycerol--inositol 3-phosphatidyltransferase), rucaparib or vehicle Vehicle, cell line OCI-C5x (clear cell), technical replicate 3: viability, normalised (%) = 40.8; activity call = active
CDIPT (CDP-diacylglycerol--inositol 3-phosphatidyltransferase), rucaparib or vehicle Vehicle, cell line OCI-P5x (serous), technical replicate 1: viability, normalised (%) = 83.6; activity call = inactive
CDIPT (CDP-diacylglycerol--inositol 3-phosphatidyltransferase), rucaparib or vehicle Vehicle, cell line OCI-P5x (serous), technical replicate 2: viability, normalised (%) = 90; activity call = inactive

Further records:
For MAPK14 (mitogen-activated protein kinase 14), rucaparib or vehicle Rucaparib, cell line OCI-C5x (clear cell), technical replicate 1, the values are viability, normalised (%) = 50; active.
MAPK14 (mitogen-activated protein kinase 14), rucaparib or vehicle Rucaparib, cell line OCI-C5x (clear cell), technical replicate 2 scored viability, normalised (%) = 53.8; active.
For MAPK14 (mitogen-activated protein kinase 14), rucaparib or vehicle Rucaparib, cell line OCI-C5x (clear cell), technical replicate 3, the entry reads viability, normalised (%) = 51.5; active.
MAPK14 (mitogen-activated protein kinase 14), rucaparib or vehicle Rucaparib, cell line OCI-P5x (serous), technical replicate 1 gave viability, normalised (%) = 88.4; inactive.
For MAPK14 (mitogen-activated protein kinase 14), rucaparib or vehicle Rucaparib, cell line OCI-P5x (serous), technical replicate 2, the values are viability, normalised (%) = 96.5; inactive.
MAPK14 (mitogen-activated protein kinase 14), rucaparib or vehicle Rucaparib, cell line OCI-P5x (serous), technical replicate 3 gave viability, normalised (%) = 84.7; inactive.
MAPK14 (mitogen-activated protein kinase 14), rucaparib or vehicle Vehicle, cell line OCI-C5x (clear cell), technical replicate 1 showed viability, normalised (%) = 44.2; active.
For MAPK14 (mitogen-activated protein kinase 14), rucaparib or vehicle Vehicle, cell line OCI-C5x (clear cell), technical replicate 2 the deposit lists viability, normalised (%) = 47.6; active.
MAPK14 (mitogen-activated protein kinase 14), rucaparib or vehicle Vehicle, cell line OCI-C5x (clear cell), technical replicate 3 showed viability, normalised (%) = 68.3; active.
With MAPK14 (mitogen-activated protein kinase 14), rucaparib or vehicle Vehicle, cell line OCI-P5x (serous), technical replicate 1 the deposit lists viability, normalised (%) = 93; inactive.
MAPK14 (mitogen-activated protein kinase 14), rucaparib or vehicle Vehicle, cell line OCI-P5x (serous), technical replicate 2 gave viability, normalised (%) = 89.1; inactive.
MAPK14 (mitogen-activated protein kinase 14), rucaparib or vehicle Vehicle, cell line OCI-P5x (serous), technical replicate 3 gave viability, normalised (%) = 85.7; inactive.
For ENPP1 (ectonucleotide pyrophosphatase/phosphodiesterase 1), rucaparib or vehicle Rucaparib, cell line OCI-C5x (clear cell), technical replicate 1 the deposit lists viability, normalised (%) = 29.6; active.
With ENPP1 (ectonucleotide pyrophosphatase/phosphodiesterase 1), rucaparib or vehicle Rucaparib, cell line OCI-C5x (clear cell), technical replicate 2, the values are viability, normalised (%) = 39.7; active.
ENPP1 (ectonucleotide pyrophosphatase/phosphodiesterase 1), rucaparib or vehicle Rucaparib, cell line OCI-C5x (clear cell), technical replicate 3 showed viability, normalised (%) = 26.9; active.
ENPP1 (ectonucleotide pyrophosphatase/phosphodiesterase 1), rucaparib or vehicle Rucaparib, cell line OCI-P5x (serous), technical replicate 1 scored viability, normalised (%) = 54.9; active.
For ENPP1 (ectonucleotide pyrophosphatase/phosphodiesterase 1), rucaparib or vehicle Rucaparib, cell line OCI-P5x (serous), technical replicate 2, the values are viability, normalised (%) = 61; active.
For ENPP1 (ectonucleotide pyrophosphatase/phosphodiesterase 1), rucaparib or vehicle Rucaparib, cell line OCI-P5x (serous), technical replicate 3, the entry reads viability, normalised (%) = 53.9; active.
For ENPP1 (ectonucleotide pyrophosphatase/phosphodiesterase 1), rucaparib or vehicle Vehicle, cell line OCI-C5x (clear cell), technical replicate 1, the entry reads viability, normalised (%) = 42.6; active.
ENPP1 (ectonucleotide pyrophosphatase/phosphodiesterase 1), rucaparib or vehicle Vehicle, cell line OCI-C5x (clear cell), technical replicate 2 scored viability, normalised (%) = 48.6; active.
For ENPP1 (ectonucleotide pyrophosphatase/phosphodiesterase 1), rucaparib or vehicle Vehicle, cell line OCI-C5x (clear cell), technical replicate 3, the entry reads viability, normalised (%) = 39.8; active.
With ENPP1 (ectonucleotide pyrophosphatase/phosphodiesterase 1), rucaparib or vehicle Vehicle, cell line OCI-P5x (serous), technical replicate 1, the values are viability, normalised (%) = 59.2; active.
ENPP1 (ectonucleotide pyrophosphatase/phosphodiesterase 1), rucaparib or vehicle Vehicle, cell line OCI-P5x (serous), technical replicate 2 showed viability, normalised (%) = 59.1; active.
ENPP1 (ectonucleotide pyrophosphatase/phosphodiesterase 1), rucaparib or vehicle Vehicle, cell line OCI-P5x (serous), technical replicate 3 gave viability, normalised (%) = 71.7; active.
